Test results from PubChem BioAssay AID540275 (National Center for Advancing Translational Sciences (NCATS), 2011).
Screen size: about 320,000 compounds; about 620 (0.19%) were called active. The shares of active, inactive and inconclusive entries below differ from those in the screen. Rule as the data show it: active = activation above about 80%; inconclusive = between about 30% and that limit; inactive = weaker than that.

Sequences of proteins named here, by UniProt entry; tags and fusion partners are left off.
UniProt Q8NER1, whole entry, looked up: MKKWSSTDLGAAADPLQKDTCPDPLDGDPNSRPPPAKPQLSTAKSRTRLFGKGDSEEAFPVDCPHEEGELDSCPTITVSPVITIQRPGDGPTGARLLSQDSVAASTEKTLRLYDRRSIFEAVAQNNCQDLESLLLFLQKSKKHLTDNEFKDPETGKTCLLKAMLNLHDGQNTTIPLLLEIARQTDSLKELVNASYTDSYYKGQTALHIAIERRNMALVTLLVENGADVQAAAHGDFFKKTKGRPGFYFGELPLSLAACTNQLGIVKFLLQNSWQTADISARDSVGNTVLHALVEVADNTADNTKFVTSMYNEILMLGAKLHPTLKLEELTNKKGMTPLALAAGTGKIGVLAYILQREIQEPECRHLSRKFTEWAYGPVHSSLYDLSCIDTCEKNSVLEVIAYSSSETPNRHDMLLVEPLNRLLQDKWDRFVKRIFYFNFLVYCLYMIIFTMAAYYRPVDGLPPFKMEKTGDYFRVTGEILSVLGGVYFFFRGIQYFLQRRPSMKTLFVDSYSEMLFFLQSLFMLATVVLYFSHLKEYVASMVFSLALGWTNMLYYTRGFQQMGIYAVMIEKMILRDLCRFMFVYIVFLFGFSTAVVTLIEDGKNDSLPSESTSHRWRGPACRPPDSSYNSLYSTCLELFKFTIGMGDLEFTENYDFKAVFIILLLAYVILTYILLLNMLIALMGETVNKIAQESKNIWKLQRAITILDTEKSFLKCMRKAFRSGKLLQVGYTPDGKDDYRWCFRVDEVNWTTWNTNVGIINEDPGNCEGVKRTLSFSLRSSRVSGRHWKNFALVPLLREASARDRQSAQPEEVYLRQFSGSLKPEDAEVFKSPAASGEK

Target: Transient receptor potential cation channel subfamily V member 1 (Homo sapiens) (UniProt Q8NER1)
Assay: HTS Assay for Compounds that Act as Agonists of the Vanilloid Receptor 1; also: 0% is about no effect
Settings: TRPV1-expressing cells, Fluo-8 calcium influx, agonist mode; at 8.33 µM, active compounds read high
Procedure, shortened: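 Cells expressing TRPV1 were dye-loaded with Fluo-8 and read kinetically: 10 s baseline, 3 min after compound (agonist portion), then 2 min after EC20 capsaicin (allosteric enhancer portion). Calcium-bound dye fluorescence at 480/520 nm.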

| Structure (SMILES) | activation |
| --- | --- |
| COc1ccccc1CNC(=S)NCCc1ccccc1 | inconclusive: 70% |
| O=C(NC(=S)Nc1ccccc1N1CCCC1)c1ccccc1[N+](=O)[O-] | inconclusive: 40.9% |
| CCOC(=O)C1CCN(C(=O)c2ccccc2N(C)S(C)(=O)=O)CC1 | inactive: 1.43% |
| O=C1C=C(c2ccc(-c3ccccc3)cc2)C[C@@H](c2ccc(Cl)cc2)C1 | inactive: 5.8% |
| CN(C(=O)c1cc(COc2ccc(F)c(F)c2)on1)C1CCOC1 (stereo not given) | inconclusive: 41% |
| Cc1ccccc1/C=N/Nc1ccnc2cc(Cl)ccc12 | inconclusive: 77.2% |
| O=C(NC(=S)NCCC1=CCCCC1)c1cccnc1 | inconclusive: 50.6% |
| CCN(CC)CCN(C(=O)c1ccc2c(c1)CCCC2)c1nc2ccc(F)cc2s1 | inactive: 1.02% |
| Cc1cccc(CSCCNC(=O)CCSc2ccccc2)c1 | inconclusive: 55.3% |
| COc1ccc2[nH]c(=O)c(CN(c3ccccc3)S(=O)(=O)c3ccccc3)cc2c1 | inconclusive: 50.3% |
| Cc1cccc(OCCCSc2nc3ccc(C)cc3[nH]2)c1 | inconclusive: 37.7% |
| COc1ccc(-c2nc(Cn3c(SCc4ccccc4F)nc4ccncc43)c(C)o2)cc1 | inconclusive: 39.3% |
| CCCc1c(NC(=O)Nc2ccc(F)cc2)cnn1-c1ccc(Cl)cc1 | inconclusive: 58% |
| CCCCn1c(SCC(=O)Nc2cc(C)on2)nc2ccccc2c1=O | inactive: -1.42% |
| COc1cccc(-c2nc(NCC3CCCO3)c3ccccc3n2)c1O (stereo not given) | inconclusive: 41.9% |
| CCOc1ccc(N(CC(=O)N2CCCCCC2)S(=O)(=O)c2ccc(C)cc2)cc1 | inconclusive: 34.1% |
| Cc1ccc(-c2ccc(C(=O)NCc3ccccc3)o2)c2ccccc12 | inconclusive: 46.4% |
| c1csc(CCNc2ncnc3sc4c(c23)CCC4)c1 | inconclusive: 46.8% |
| c1ccc(Cc2c[nH]c3ccccc23)cc1 | inactive: 3.97% |
| Nc1nonc1-n1nnc(C(=O)N/N=C/c2cccnc2)c1CSc1ccccc1 | inconclusive: 60.6% |
| CC(=O)N1CCN(c2nc(CC(C)C)c3c(c2C#N)CCC3)CC1 | active: 93.1% |
| CCc1ccccc1OCCCN1CCCC1 | inactive: -4.54% |

Looked up above.
In activation, `COc1ccc2[nH]c(=O)c(CN(c3ccccc3)S(=O)(=O)c3ccccc3)cc2c1` is listed with inconclusive: 50.3%
In activation, `Cc1ccccc1/C=N/Nc1ccnc2cc(Cl)ccc12` is listed with inconclusive: 77.2%
In activation, `CN(C(=O)c1cc(COc2ccc(F)c(F)c2)on1)C1CCOC1` (stereo not given) is listed with inconclusive: 41%
In activation, `CCc1ccccc1OCCCN1CCCC1` is listed with inactive: -4.54%

Later entries:

| Structure (SMILES) | activation |
| --- | --- |
| CCCCN1C(=O)C(CC(=O)NCC)SC1=Nc1ccccc1 (stereo not given) | inconclusive: 61.8% |
| CCOC(=O)[C@H]1[C@H]2COc3ccc(OC)cc3[C@@H]2N2C(=O)c3cc(F)c(F)cc3NC(=O)[C@@]12C | active: 92.4% |
| COc1ccccc1C(=O)N/N=C/c1ccc(Cl)s1 | inconclusive: 72.1% |
| O=C(Cn1cnc2cc([N+](=O)[O-])ccc2c1=O)Nc1cccc(S(=O)(=O)N2CCOCC2)c1 | inactive: -5.51% |
| N=c1c(C(=O)NCC2CCCO2)cc2c(=O)n3ccccc3nc2n1Cc1ccc(Cl)cc1 (stereo not given) | inconclusive: 79.2% |
| CN1CCN(S(=O)(=O)c2ccc(NC(=O)c3ccc(Br)s3)cc2)CC1 | inconclusive: 30.8% |
| CC(=O)Nc1ccc(/C(C)=N/Nc2nc(Nc3ccccc3)nc(N3CCOCC3)n2)cc1 | inactive: 6.46% |
| CC(=O)/C(N=Nc1nc2c([nH]1)c(=O)n(C)c(=O)n2C)=C(\C)O | inactive: -1.93% |
| CCC(C)(C)NC(=O)c1cc([N+](=O)[O-])ccc1N1CCCCC1 | inconclusive: 55.8% |
| Cc1ccc(NC(=O)c2cc(C)n(-c3cccc(C)c3)c2C)cc1 | inconclusive: 61.1% |
| COCCN=C1Sc2nc3ccc(C)cc3cc2CN1Cc1ccco1 | inconclusive: 36.6% |
| Cc1ccc2nc(CCc3ccc(N)cc3)[nH]c2c1 | inconclusive: 36% |
| CNC(=O)/C(C#N)=C/c1c(N2CCN(c3cccc(Cl)c3)CC2)nc2c(C)cccn2c1=O | inconclusive: 32.6% |
| COc1ccc(/C=C2\C(=O)N(Cc3ccc(F)cc3)CC(=O)N2Cc2ccccc2)cc1 | inconclusive: 62.6% |
| COc1ccc(CNC(=O)c2ccc3oc(C(C)C)nc3c2)cc1 | inconclusive: 47.2% |
| Cc1cc(CNC(=O)C2CCC(=O)N(Cc3cccc(C(F)(F)F)c3)C2)no1 (stereo not given) | inactive: 0.238% |
| Cc1ccc(NC(=S)c2ccccc2)cc1 | inconclusive: 39.9% |
| Cc1cc(C)nc(SCc2ccc(C(=O)N/N=C/c3cccc(O)c3O)cc2)n1 | inactive: 1.96% |
| CCN(Cc1ccccc1)S(=O)(=O)c1ccc(C(=O)N(CCCN(C)C)c2nc3cc(C)cc(C)c3s2)cc1 | inconclusive: 31.5% |
| COc1ccc(C2=NOC(Cn3nc(C(=O)NCc4cccc(C(F)(F)F)c4)cc3-c3ccccc3)C2)cc1 (stereo not given) | inactive: 5.1% |
| O=C(c1cc(S(=O)(=O)N2CCN(c3ccccc3)CC2)ccc1Cl)N1CCCC(C(F)(F)F)C1 (stereo not given) | inconclusive: 31% |
| O=C(OCc1nc2ccccc2[nH]1)C1CCCCC1 | inconclusive: 52.4% |
| CCSc1nnc(-c2sc3nnc(-c4ccccc4)c(-c4ccccc4)c3c2N)o1 | inconclusive: 43.7% |

| Structure (SMILES) | activation |
| --- | --- |
| CCCCCc1nc(N)c(C#N)c(-c2ccco2)c1CCCC | inconclusive: 32.9% |
| Cc1ccccc1OCCNC(=S)Nc1ccccc1 | inconclusive: 46.4% |
| COc1ccc(CN2CC(=O)N(c3cc(Cl)ccc3OC)C2=S)cc1OC | inconclusive: 36.3% |
| Cc1nc2cc(F)ccc2n1C1CCN(C(=O)c2c(F)cccc2F)CC1 | inactive: 1.64% |
| CSc1ncccc1C(=O)OCC(=O)Nc1ccc2c(c1)CCC2 | inactive: 6.08% |
| O=C(O)CCCN1C(=O)NC2NC(=O)NC21 (stereo not given) | inactive: -1.3% |
| Cc1ccc2nc(CSc3nc(C)ccc3C#N)[nH]c2c1 | inconclusive: 38.2% |
| O=C(Nc1ccc(F)cc1F)Nc1csc2ccccc12 | inconclusive: 51.4% |
| O=[N+]([O-])c1cccc(CN2CCCCCC2)c1 | inactive: -17.9% |
| CCC1(c2ccc(Cl)cc2)NC(=O)N(Cc2ccc(C(=O)OC)cc2)C1=O (stereo not given) | inactive: 17.6% |
| O=C(Oc1ccc(Cl)c2ccccc12)N1CCCCC1 | inactive: 19.9% |
| COc1ccc(-c2cnnn2-c2ccc(NC(=O)/C=C/c3ccc(OC)c(OC)c3)cc2)cc1 | inactive: -4.13% |
| Cc1ccc(SCC(=O)OC(C)C(=O)NC2CCCCC2C)c(C)c1 (stereo not given) | inconclusive: 49.7% |
| COc1ccc(OC)c(/C=C/C(=O)N(C)CC(=O)Nc2ccc(C)cc2)c1 | inactive: 3.92% |
| CN1C(=O)/C(=C/c2ccccc2OCc2ccccc2F)NC1=S | inconclusive: 33.2% |
| Cc1ccc(S(=O)(=O)c2nc(-c3ccccc3)oc2SCC(=O)NCC2CCCO2)cc1 (stereo not given) | inconclusive: 60.6% |
| Cc1cc[n+](C(C)C(=O)c2ccc(-c3ccccc3)cc2)cc1 (stereo not given) | inactive: 1.51% |
| CN(C)c1nc(NCc2ccccc2)nc(N/N=C/c2ccc3c(c2)OCO3)n1 | inconclusive: 34.1% |
| COc1cccc(-c2cc(C(=O)Nc3cccc(O)c3)no2)c1 | inconclusive: 75.3% |
| CC(C)(C)c1ccc(/C=C/C(=O)Nc2ncccn2)cc1 | inconclusive: 50.1% |
| COc1ccccc1N(C)S(=O)(=O)c1ccc(C(=O)N2CCCC(C(F)(F)F)C2)cc1 (stereo not given) | inconclusive: 36.5% |
| COc1ccc(NC(=O)C2CCN(C(=O)NCc3ccccc3)CC2)cc1 | inconclusive: 72.9% |

| Structure (SMILES) | activation |
| --- | --- |
| CCn1c(COc2ccc(C)cc2)nnc1SCC(=O)C(C)(C)C | inconclusive: 43.9% |
| CCSc1ccc([C@@H]2[C@@H]3C(=O)N(C)C(=O)[C@@H]3[C@]3(C(=O)OC)CCCCN23)cc1 | inconclusive: 44.2% |
| Cc1[nH]n(-c2ccccc2)c(=O)c1C=Nc1ccc(S(N)(=O)=O)cc1 | inactive: 0.797% |
| O=C(NC1CCCCCC1)c1ccc(CN2CCOCC2)cc1 | inconclusive: 35.9% |
| O=C(NC1CC1)c1cc2c(s1)-c1ccccc1OC2 | inconclusive: 64.6% |
| O=C(O)CCc1ccc(-c2ccccc2)n1CC(=O)Nc1cccc(C(F)(F)F)c1 | inactive: 8.89% |
| Fc1cccc(Cc2noc(CN3CCCN(C4Cc5ccccc5C4)CC3)n2)c1 | inactive: -2.61% |
| COc1ccccc1-c1nn2c(C3COc4ccccc4O3)nnc2s1 (stereo not given) | inactive: 14.8% |
| CCOC(=O)C1CCCN(C(=O)c2csc(-c3ccc4c(c3)CCO4)n2)C1 (stereo not given) | inconclusive: 40.3% |
| O=C(CCc1nnc2n(Cc3ccc(F)cc3)c(=O)c3ccccc3n12)NCCN1CCOCC1 | inactive: 1.14% |
| CC(=O)N(CCc1ccccc1C)Cc1cc2cc3c(cc2[nH]c1=O)OCO3 | inconclusive: 59.3% |
| Cc1cccc(CC(=O)Nc2sc(C(C)C)cc2C(=O)N2CCOCC2)c1 | inconclusive: 45% |
| CCOC(=O)C1CCN(C(=S)Nc2ccc(CC)cc2)CC1 | inconclusive: 34.9% |
| O=C(CN1CCOCC1)Nc1ncc(Cc2cccc3ccccc23)s1 | inconclusive: 30.1% |
| O=C(CCC1CCCCC1)NCc1ccncc1 | inconclusive: 60.6% |
| CN(Cc1ccc(F)cc1)Cc1nc(CCc2ccccc2)no1 | inactive: 17.2% |
| Cc1ccc(C(=O)Nc2ccc3c(c2)OCCO3)c(C)c1 | inactive: 21.3% |
| OCCNCc1c(OCc2ccc(Cl)cc2)ccc2ccccc12 | inactive: -8.68% |
| CC(=O)NCC1CCCN(C(=O)c2oc3c(F)cccc3c2C)C1 (stereo not given) | inactive: 2.41% |
| Fc1ccccc1N1CCN(c2cnc3ccccc3n2)CC1 | inconclusive: 34.7% |
| COc1cccc(-c2nnc3sc(C4CCCCC4)nn23)c1 | inconclusive: 42.1% |
